Holding throughout (experiment): broth microdilution MIC (CLSI)
Holding throughout (format): cell-based

Assay [1] has as its system E. faecalis ATCC51599 vancomycin resistant. The note with it: Enterococcus faecalis, ATCC51599, read-out: Antibacterial activity (MIC). How it is done: (§1) Using a broth microdilution assay according to Clinical Laboratory Standards Institute (CSLI) guidelines, we tested 5-(2,5-bis(4-chloro-2-isopropylphenyl)thiophen-3-yl)-1H-tetrazole (“Test Article” in below table) to establish MICs against a broad range of MDR bacteria and noted substantive activity versus methicillin-resistant Staphylococcus aureus (MRSA), vancomycin-resistant Enterococcus (VRE) and Streptococcus spp. Antimicrobial susceptibility testing was performed by a microdilution broth assay according to CLSI guidelines. The inoculum was prepared from stationary-phase cultures diluted in water. Microtiter plate wells received aliquots of 100 μL of the compound diluted in Mueller-Hinton II cation adjusted media. The final concentration of compound typically ranged from 250 to 0.125 μg/ml in serial two-fold dilutions. In addition to the test compound, growth and sterility controls were included, along with DMSO vehicle control rows. The microtiter plates were inoculated with 5×10^5 bacteria and incubated overnight at 35° C. in a humidified atmosphere.

Assay [2] deals with E. faecium ATCC51299 vancomycin resistant. The note with it: Enterococcus faecium, ATCC51299, read-out: Antibacterial activity (MIC). The procedure:
as §1

The test system of assay [3] is S. epidermidis NRS7 vancomycin intermediate. The note with it: Staphylococcus epidermidis, NRS7, read-out: Antibacterial activity (MIC). How it is done: as §1

Converted amounts (≈) assume the structure as drawn.

Broadly, the MIC is the smallest concentration in the dilution series that meets the test's criterion for growth inhibition.

As to `CN[C@H](CC(C)C)C(=O)N[C@H]1C(=O)N[C@@H](CC(N)=O)C(=O)N[C@H]2C(=O)N[C@H]3C(=O)N[C@H](C(=O)N[C@H](C(=O)O)c4cc(O)cc(O)c4-c4cc3ccc4O)[C@H](O)c3ccc(c(Cl)c3)Oc3cc2cc(c3O[C@@H]2O[C@H](CO)[C@@H](O)[C@H](O)[C@H]2O[C@H]2C[C@](C)(N)[C@H](O)[C@H](C)O2)Oc2ccc(cc2Cl)[C@H]1O` [vancomycin, reference compound], the MIC was above 16 µg/mL in assay [1], above 16 µg/mL in assay [2] and 4 µg/mL (≈ 2.76 µM) in assay [3].

The record behind these values is US12358902B2, “5-(2,5-bis(4-chloro-2-isopropylphenyl)thiophen-3-yl)-1H-tetrazole for the topical treatment of bacterial infections” (DENOVAMED INC., priority 2017, dated 2025).
